In patent US20230251254A1, “METHOD FOR EVALUATING INTERACTION BETWEEN IMMOBILIZED SUBSTANCE IMMOBILIZED DIRECTLY OR INDIRECTLY ON SUBSTRATE AND PROXIMITY-DEPENDENT MODIFYING ENZYMELABELED SUBSTANCE TO BE ANALYZED” (CELLFREE SCIENCES CO.,LTD., priority 2020, published 2023):
Results are given in words; binding and its absence hold for the method and conditions named. Some results given as binding are weak or reduced against the parent protein; the word gives no strength. Where a sequence is shown, tags or fusion partners need not be part of it.

Chains of the proteins cited; added tags and fusions are not shown. Lines headed by an entry give the natural chain unless they say otherwise; changes in a name come on top.
UniProt Q04206: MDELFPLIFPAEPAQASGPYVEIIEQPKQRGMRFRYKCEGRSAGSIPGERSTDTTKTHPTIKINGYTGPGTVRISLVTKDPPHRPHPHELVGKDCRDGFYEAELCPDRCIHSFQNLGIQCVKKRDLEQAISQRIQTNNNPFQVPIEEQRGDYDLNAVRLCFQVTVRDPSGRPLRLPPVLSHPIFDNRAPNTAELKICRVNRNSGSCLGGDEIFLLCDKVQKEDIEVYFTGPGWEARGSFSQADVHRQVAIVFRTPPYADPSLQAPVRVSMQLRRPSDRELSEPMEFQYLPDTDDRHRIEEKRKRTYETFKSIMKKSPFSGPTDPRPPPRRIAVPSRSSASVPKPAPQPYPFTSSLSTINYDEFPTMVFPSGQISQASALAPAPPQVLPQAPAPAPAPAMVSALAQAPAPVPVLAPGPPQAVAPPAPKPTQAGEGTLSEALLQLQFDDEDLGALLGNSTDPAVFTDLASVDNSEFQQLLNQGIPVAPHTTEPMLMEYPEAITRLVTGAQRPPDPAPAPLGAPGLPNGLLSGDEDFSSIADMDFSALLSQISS

Target: T1, FLAG-GST-fused RelA (UniProt Q04206 1-551)
T1 construct: Immobilized on glutathione magnetic beads on the non-denatured protein array; Order of the parts follows the printed name FLAG-GST; also called FLAG-GST-fused immobilized substance (RelA); not shown: FLAG tag protein; GST protein (glutathione S-transferase tag)
Experiment: AirID proximity biotinylation on non-denatured protein array; HRP-streptavidin chemiluminescence

binding: binds
B1: AirID-fused Iκβα (other)
chain: MKDNTVPLTLISILADGEFHSGEQLGEQLGMSRAAINKHIKTLRDWGVDVFRVQGKGYCLPEPIQLLDEEKIRQQLDEGSVTVLPVIDSTNQYLLDRLDELTSGDVCIAEYQQAGRGSRGRKWFSPFGANLYLSMYWRLEQGPAAAMGLSLVIGIVMAETLQKLGADGVRVKWPNDLYLNDRKLAGILVEMTGKTGDAAHIVIGAGINLSMREPETDEVDQSWINLQEAGITIDRNQLAARLIKDLRSALRQFEQQGLAPFLSRWEALDNFINRPVKLIIGDREIHGIARGINEQGALLLEQDGVIKPWIGGEISLRSAMFQAAERPQEWAMEGPRDGLKKERLLDDRHDSGLDSMKDEEYEQMVKELQEIRLEPQEVPRSSEPWKQQLTEDGDSFLHLAIIHEEKALTMEVIRQVKGDLAFLNFQNNLQQTPLHLAVITNQPEIAEALLGAGCDPELRDFRGNTPLHLACEQGCLASVGVLTQSCTTPHLHSILKATNYNGHTCLHLASIHGYLGIVELLVSLGADVNAQEPCNGRTALHLAVDLQNPDLVSLLLKCGADVNRVTYQGYSPYQLTWGRPSTRIQQQLGQLTLENLQMLPESEDEESYDTESEFTEFTEDELPYDDCVFGGQRLTL
notes: Fusion made in a wheat cell-free system; also called AirID-fused substance to be analyzed (Iκβα)
